Test results: paper PMC12439145

Chains of the proteins cited; added tags and fusions are not shown. A line that says so, or that is headed by a name, gives the form on record, which may keep a tag or linker. Residues count along the entry.
UniProt P10721, 26-976: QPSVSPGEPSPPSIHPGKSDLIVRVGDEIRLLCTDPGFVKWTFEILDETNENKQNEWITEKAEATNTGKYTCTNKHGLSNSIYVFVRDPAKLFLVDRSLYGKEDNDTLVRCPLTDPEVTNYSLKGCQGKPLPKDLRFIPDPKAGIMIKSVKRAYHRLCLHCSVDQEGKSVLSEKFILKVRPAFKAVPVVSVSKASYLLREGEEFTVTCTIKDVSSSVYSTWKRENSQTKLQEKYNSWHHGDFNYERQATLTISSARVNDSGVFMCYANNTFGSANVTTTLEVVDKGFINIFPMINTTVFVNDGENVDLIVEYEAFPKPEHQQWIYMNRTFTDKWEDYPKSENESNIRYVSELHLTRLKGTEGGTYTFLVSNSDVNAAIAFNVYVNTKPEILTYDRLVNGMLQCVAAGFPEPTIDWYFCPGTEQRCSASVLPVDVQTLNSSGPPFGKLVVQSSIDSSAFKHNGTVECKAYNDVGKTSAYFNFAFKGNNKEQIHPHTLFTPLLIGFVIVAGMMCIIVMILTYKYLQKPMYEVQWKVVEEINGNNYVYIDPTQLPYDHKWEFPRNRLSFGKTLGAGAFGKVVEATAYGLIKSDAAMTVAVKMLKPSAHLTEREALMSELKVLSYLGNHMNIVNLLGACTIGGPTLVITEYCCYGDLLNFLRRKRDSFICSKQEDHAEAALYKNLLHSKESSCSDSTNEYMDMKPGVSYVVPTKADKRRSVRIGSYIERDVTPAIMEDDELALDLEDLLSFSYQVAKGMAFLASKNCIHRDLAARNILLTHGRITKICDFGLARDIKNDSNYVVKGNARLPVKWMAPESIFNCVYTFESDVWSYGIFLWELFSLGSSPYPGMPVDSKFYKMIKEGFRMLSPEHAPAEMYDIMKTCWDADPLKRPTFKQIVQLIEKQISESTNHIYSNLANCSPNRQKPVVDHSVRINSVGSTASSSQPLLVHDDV
UniProt P05532, other isoform, or with tags, fused parts or gaps, stated change not applied: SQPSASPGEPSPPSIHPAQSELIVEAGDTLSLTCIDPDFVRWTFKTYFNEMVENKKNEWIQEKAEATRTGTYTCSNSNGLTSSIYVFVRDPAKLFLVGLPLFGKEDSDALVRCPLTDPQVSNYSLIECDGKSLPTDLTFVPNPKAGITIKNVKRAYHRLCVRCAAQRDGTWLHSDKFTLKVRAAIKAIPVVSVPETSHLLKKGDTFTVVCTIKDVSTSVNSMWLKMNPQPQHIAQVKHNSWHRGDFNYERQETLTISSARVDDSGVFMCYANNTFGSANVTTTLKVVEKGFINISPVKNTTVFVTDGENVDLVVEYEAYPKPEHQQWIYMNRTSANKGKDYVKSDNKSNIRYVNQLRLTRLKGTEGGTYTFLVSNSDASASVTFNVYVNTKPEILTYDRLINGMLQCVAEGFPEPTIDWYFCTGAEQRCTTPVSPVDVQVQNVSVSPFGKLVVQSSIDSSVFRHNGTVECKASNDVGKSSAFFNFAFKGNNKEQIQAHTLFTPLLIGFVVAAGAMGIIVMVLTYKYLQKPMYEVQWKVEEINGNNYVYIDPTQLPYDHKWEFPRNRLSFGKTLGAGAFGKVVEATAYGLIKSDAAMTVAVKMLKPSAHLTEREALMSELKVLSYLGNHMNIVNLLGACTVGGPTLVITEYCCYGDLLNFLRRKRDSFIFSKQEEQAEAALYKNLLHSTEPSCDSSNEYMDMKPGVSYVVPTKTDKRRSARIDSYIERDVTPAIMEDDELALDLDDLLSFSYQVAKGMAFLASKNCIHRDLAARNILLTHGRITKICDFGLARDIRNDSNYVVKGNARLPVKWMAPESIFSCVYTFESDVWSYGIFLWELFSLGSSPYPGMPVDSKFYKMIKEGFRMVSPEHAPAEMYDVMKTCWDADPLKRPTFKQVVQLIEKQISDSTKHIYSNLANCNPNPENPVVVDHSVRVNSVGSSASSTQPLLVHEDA

How the values were obtained:
[1] = target: KIT on GIST-CN16 cells (human (GIST-CN16, patient-derived xenograft)) (UniProt P10721); assay: flow cytometry; settings: protein on the cell surface, single-stranded DNA
[2] = target: murine Kit V558del on KitV558del/+ tumor cells del562-562 (mouse (KitV558del/+)) (UniProt P05532); assay: flow cytometry; settings: dissociated tumor cells; protein on the cell surface; label: Cy5 in flow cytometry; single-stranded DNA
[3] = target: KIT on GIST-T1 cells (human (GIST-T1)) (UniProt P10721); assay: competition with a labelled probe; settings: pretreated with anti-KIT antibody (epitope aa 350-440); protein on the cell surface; label: Cy5 in flow cytometry; single-stranded DNA
[4] = target: KIT on GIST-430/654 cells (human (GIST-430/654)) (UniProt P10721); assay: competition with a labelled probe; settings: pretreated with anti-KIT antibody (epitope aa 350-440); protein on the cell surface; label: Cy5 in flow cytometry; single-stranded DNA
[5] = target: KIT on GIST-T1 cells (human (GIST-T1)) (UniProt P10721); assay: flow cytometry; settings: protein on the cell surface, single-stranded DNA
[6] = target: KIT on GIST-430/654 cells (human (GIST-430/654)) (UniProt P10721); assay: flow cytometry; settings: protein on the cell surface, single-stranded DNA
[7] = target: KIT on GIST-430 cells (human (GIST-430)) (UniProt P10721); assay: flow cytometry; settings: 250 nM aptamer, protein on the cell surface, label: Cy5 in flow cytometry, single-stranded DNA
[8] = 250 nM aptamer, label: Cy5 in flow cytometry
[9] = 250 nM aptamer, lost affinity, label: Cy5 in flow cytometry
[10] = mc-vc-PAB-MMAE drug conjugate, attachment position not stated in material, label: Cy5

ATTCAAGGGGCCGGGGCAAGGGGGGGGTACCGTGGTAGGACATAGT [KIT-d]
binding result ([1]; label: Cy5 in flow cytometry): binds | binding result [2]: binds | binding result [3]: binds more weakly | binding result [4]: binds more weakly

GGGGCCGGGGCAAGGGGGGGGTACCGTGGTAGGACATAGTAAGTGCAATCTGCGAA [KIT-b]
binding result [5, 8]: binds more weakly | binding result [6, 8]: binds more weakly | binding result [7]: binds more weakly

GAGGCATACCAGCTTATTCAAGGGGCCGGGGCAAGGGGGGGGTACCGTGGTAGGAC [KIT-a]
binding result [5, 8]: binds more weakly | binding result [6, 8]: binds more weakly | binding result [7]: binds more weakly

GAGGCATACCAGCTTATTCAATACCGTGGTAGGACATAGTAAGTGCAATCTGCGAA [KIT-c]
binding result [5, 9]: no binding | binding result [6, 9]: no binding | binding result ([7]; lost affinity): no binding

GAGGCATACCAGCTTATTCAAGGGGCCGGGGCAAGGGGGGGGTACCGTGGTAGGACATAGTAAGTGCAATCTGCGAA [KIT-w]
binding result [5, 8]: binds | binding result [6, 8]: binds | binding result [7]: binds

ATTCAAGGGGCCGGGGCAAGGGGGGGGTACCGTGGTAGGACATAGT [KIT-d-MMAE]
binding result [5, 10]: binds | binding result [6, 10]: binds | binding result [1, 10]: binds

For at least one entry, the source does not settle the construct or the ends of the probe. Results from cells or extracts need not show a direct contact. For some of these results: Negatives hold for the conditions tested. For some of these results: At least one verdict rests on a figure or table, not on a statement of the authors. For some of these results: The comparison behind a weaker result is the experiment's own reference, which may not be listed here.
